Source: US10023922B2, “Reporter of genomic methylation and uses thereof” (Whitehead Institute for Biomedical Research, priority 2015, dated 2018)
At least one structure is not confirmed: it was looked up by name or label, or the drawing left a doubt.

Key:
miR290 and Sox2 cells = experiment: Retinoic acid-induced differentiation of miR290 and Sox2 SE reporter mESCs (tdTomato / Nanog-GFP flow cytometry); format: cell-based, mouse; conditions: 0.25 uM RA, time course of 7 days, FIGS. 4B and 4C
miR290 and Sox2 MEFs = experiment: Reprogramming of secondary Dox-inducible MEFs to iPSCs (tdTomato / Nanog-GFP flow cytometry); format: cell-based, mouse; conditions: serum and LIF medium supplemented with 2 ug/ml doxycycline, without 3C

Row | SMILES | fraction of double positive (tdTomato+/GFP+) cells upon induction of differentiation (miR290 and Sox2 cells) | overall course of reprogramming (miR290 and Sox2 MEFs)
1 | CC1=C(/C=C/C(C)=C/C=C/C(C)=C/C(=O)O)C(C)(C)CCC1 [Retinoic Acid] | gradual reduction in the fraction of double positive cells | 
2 | C[C@H]1c2cccc(O)c2C(=O)C2=C(O)[C@]3(O)C(=O)C(C(N)=O)=C(O)[C@@H](N(C)C)[C@@H]3[C@@H](O)[C@@H]21 [doxycycline] |  | protracted and highly inefficient
